PubChem BioAssay AID1259308, NCATS – 2017
Assay: 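Genes whose loss raises luciferase production in HEK293 cells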 (primary screen). Cells: human HEK293 embryonic kidney cells stably expressing firefly luciferase (HEK-CMV-Luc2-Hygro). Knock-down reagent: single siRNA against human genes, 0.8 pmol siRNA per well. Time to read-out: 72 h. Read-out: 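Reporter luminescence and viable-cell signal on separate replicate plates, given as percent of non-targeting control and median/MAD z-scores, plus per-cell luciferase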. Direction: total luciferase, z-score: higher = more reporter protein produced. Call rule: 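Active when the median/MAD z-score for overall luciferase is greater than 3; a gene was taken forward for validation with new siRNAs if at least two of its three siRNAs passed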. Meaning of the calls: active = raised luciferase; inactive = no rise.
The whole screen tested about 59,000 reagents; below is a part drawn at random. In the full data, about 1,510 (2.6%) are marked active. 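Calls use total luciferase alone and ignore viability, so some active siRNAs may act by altering cell number.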 A number with no mark means an inactive call. The numbers tell different reagents against one gene apart. Not all columns of the deposit are shown.

| Gene | reagent | total luciferase, z-score |
| --- | --- | --- |
| TADA2B | 1 | -0.638 |
| TADA2B | 2 | 0.244 |
| TADA2B | 3 | -0.0568 |
| SPINK14 | 1 | -1.53 |
| SPINK14 | 2 | -0.271 |
| SPINK14 | 3 | -0.811 |
| CALM3 | 1 | 1.23 |
| CALM3 | 2 | 0.877 |
| CALM3 | 3 | 1.21 |
| PAQR4 | 1 | -0.419 |
| PAQR4 | 2 | 4.78 (active) |
| PAQR4 | 3 | 0.81 |
| H1-5 | 1 | -1.52 |
| H1-5 | 2 | 0.616 |
| H1-5 | 3 | 0.755 |
| FAM170A | 1 | -1.46 |
| FAM170A | 2 | -0.281 |
| FAM170A | 3 | -1.49 |
| HNF4G | 1 | -1.6 |
| HNF4G | 2 | -2.54 |
| HNF4G | 3 | 0.288 |
| FKBP3 | 1 | -1.26 |
| FKBP3 | 2 | -0.123 |
| FKBP3 | 3 | 0.154 |
| TRIM7 | 1 | 3.6 (active) |
| TRIM7 | 2 | 2.52 |
| TRIM7 | 3 | 0.225 |
| MTURN | 1 | 0.45 |
| MTURN | 2 | 0.427 |
| MTURN | 3 | -0.358 |
| MAGEA4 | 1 | 1.73 |
| MAGEA4 | 2 | -2.39 |
| MAGEA4 | 3 | 0.516 |
| ARHGAP11A | 1 | -2.35 |
| ARHGAP11A | 2 | -0.0911 |
| ARHGAP11A | 3 | -0.0889 |
| SDK2 | 1 | 0.776 |
| SDK2 | 2 | 4.89 (active) |
| SDK2 | 3 | -0.585 |
| HOATZ | 1 | 0.246 |
| HOATZ | 2 | -0.386 |
| HOATZ | 3 | -1.33 |
| DNM1P31 | 1 | -0.512 |
| DNM1P31 | 2 | 1.25 |
| DNM1P31 | 3 | 2 |
| LRP2 | 1 | 0.658 |
| LRP2 | 2 | 0.0938 |
| LRP2 | 3 | -0.387 |
| MIR1-1HG | 1 | 1.2 |
| MIR1-1HG | 2 | 0.221 |
| MIR1-1HG | 3 | 0.346 |
| MEIOC | 1 | -1.49 |
| MEIOC | 2 | -0.839 |
| MEIOC | 3 | 0.0872 |
| HTR3A | 1 | -1.1 |
| HTR3A | 2 | -0.284 |
| HTR3A | 3 | 0.019 |

Taken from above.
Under “total luciferase, z-score”, MAGEA4 #3 is entered as 0.516
Entry for SDK2 #1 in “total luciferase, z-score”: 0.776
DNM1P31 #3, total luciferase, z-score: 2
For “total luciferase, z-score”, FKBP3 #2 shows -0.123
For “total luciferase, z-score”, H1-5 #2 reads 0.616
Under “total luciferase, z-score”, CALM3 #1 shows 1.23
